Measurements published in ChEMBL document CHEMBL1127350, “The squalestatins: novel inhibitors of squalene synthase. Enzyme inhibitory activities and in vivo evaluation of C1-modified analogues” (J Med Chem, 1994).

Target: T1, Squalene synthase (Rattus norvegicus, UniProt Q02769)
T1 sequence (Q02769 whole entry): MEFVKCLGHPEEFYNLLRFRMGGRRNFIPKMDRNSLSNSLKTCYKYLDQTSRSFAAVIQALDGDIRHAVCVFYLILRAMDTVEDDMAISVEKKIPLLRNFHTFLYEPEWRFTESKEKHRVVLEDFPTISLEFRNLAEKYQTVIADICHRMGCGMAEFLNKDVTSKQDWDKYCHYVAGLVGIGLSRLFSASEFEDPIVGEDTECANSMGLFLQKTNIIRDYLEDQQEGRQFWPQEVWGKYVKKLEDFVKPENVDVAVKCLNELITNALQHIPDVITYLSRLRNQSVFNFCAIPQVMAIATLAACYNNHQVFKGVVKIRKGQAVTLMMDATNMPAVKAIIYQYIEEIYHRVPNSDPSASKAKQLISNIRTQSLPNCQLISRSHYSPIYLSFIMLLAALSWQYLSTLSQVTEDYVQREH
Assay: Inhibition of juvenile male rat liver microsomal squalene synthase

IC50: 26 nM
SMILES: C=C(CC[C@]12O[C@H](C(=O)O)[C@@](O)(C(=O)O)[C@](C(=O)O)(O1)[C@H](O)[C@H]2O)[C@H](OC(C)=O)[C@@H](C)Cc1ccccc1
